One may read the MIC as the lowest concentration found to suppress growth. Lower therefore signals greater potency.

Experimental findings from patent US4547488A, “Antibiotic M43D, pharmaceutical compositions and method of use” (priority 1984, dated 1985) are described below.

Molecules are shown by their SMILES. Converted amounts (≈) assume the structure as drawn.

Holding throughout (assay): agar-dilution MIC
What all share (assay type): cell-based

In test [1] the test system is Streptococcus pneumoniae Park 1.
A further test relates to Escherichia coli EC14.
Test [2] deals with Staphylococcus aureus V41.
The next test concerns Escherichia coli TEM.
The subject of test [3] is Staphylococcus aureus S13E.
Test [4] relates to Staphylococcus epidermidis 222.
The test system of test [5] is Staphylococcus epidermidis EPI1.

Regarding `CN[C@H](CC(C)C)C(=O)N[C@H]1C(=O)N[C@@H](CC(N)=O)C(=O)N[C@H]2C(=O)N[C@H]3C(=O)N[C@H](C(=O)N[C@H](C(=O)O)c4cc(O)cc(O)c4-c4cc3ccc4O)[C@H](O)c3ccc(c(Cl)c3)Oc3cc2cc(c3O[C@@H]2O[C@H](CO)[C@@H](O)[C@H](O)[C@H]2O[C@H]2C[C@](C)(N)[C@H](O)[C@H](C)O2)Oc2ccc(cc2Cl)[C@H]1O` [Vancomycin], the MIC in test [1] was 0.125 µg/mL (≈ 0.0863 µM); in the test on Escherichia coli EC14, greater than 128 µg/mL; in test [2], 0.5 µg/mL (≈ 0.345 µM); against Escherichia coli TEM, 64 µg/mL (≈ 44.2 µM); in test [3] it was 1 µg/mL (≈ 0.69 µM); in test [4], 1 µg/mL (≈ 0.69 µM). In test [5], this molecule came in with an MIC of 2 µg/mL (≈ 1.38 µM).
